Assay results reported in paper PMC7145517.
Results are given in words; binding and its absence hold for the method and conditions named. In cells and extracts the contact can be indirect. Some results given as binding are weak or reduced against the parent protein; the word gives no strength.

Sequences of proteins named here, by UniProt entry; tags and fusion partners are left off.
UniProt Q9P0U4: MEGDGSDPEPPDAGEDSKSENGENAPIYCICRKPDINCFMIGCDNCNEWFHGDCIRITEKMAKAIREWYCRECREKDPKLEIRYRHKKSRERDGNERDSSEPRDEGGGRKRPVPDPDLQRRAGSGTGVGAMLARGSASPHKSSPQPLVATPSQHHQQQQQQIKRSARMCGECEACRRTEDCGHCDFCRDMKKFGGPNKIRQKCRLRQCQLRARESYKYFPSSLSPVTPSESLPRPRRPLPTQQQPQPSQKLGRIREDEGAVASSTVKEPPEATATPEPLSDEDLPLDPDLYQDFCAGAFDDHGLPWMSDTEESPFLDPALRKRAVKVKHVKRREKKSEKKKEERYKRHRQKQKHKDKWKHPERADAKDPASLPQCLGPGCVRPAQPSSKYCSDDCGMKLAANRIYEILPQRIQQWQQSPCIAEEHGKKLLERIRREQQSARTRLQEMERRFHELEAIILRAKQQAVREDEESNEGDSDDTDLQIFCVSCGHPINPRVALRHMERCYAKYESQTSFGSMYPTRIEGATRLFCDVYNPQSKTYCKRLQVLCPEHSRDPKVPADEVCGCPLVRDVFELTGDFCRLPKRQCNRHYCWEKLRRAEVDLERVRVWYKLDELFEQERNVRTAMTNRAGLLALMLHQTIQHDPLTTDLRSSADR
UniProt Q15291: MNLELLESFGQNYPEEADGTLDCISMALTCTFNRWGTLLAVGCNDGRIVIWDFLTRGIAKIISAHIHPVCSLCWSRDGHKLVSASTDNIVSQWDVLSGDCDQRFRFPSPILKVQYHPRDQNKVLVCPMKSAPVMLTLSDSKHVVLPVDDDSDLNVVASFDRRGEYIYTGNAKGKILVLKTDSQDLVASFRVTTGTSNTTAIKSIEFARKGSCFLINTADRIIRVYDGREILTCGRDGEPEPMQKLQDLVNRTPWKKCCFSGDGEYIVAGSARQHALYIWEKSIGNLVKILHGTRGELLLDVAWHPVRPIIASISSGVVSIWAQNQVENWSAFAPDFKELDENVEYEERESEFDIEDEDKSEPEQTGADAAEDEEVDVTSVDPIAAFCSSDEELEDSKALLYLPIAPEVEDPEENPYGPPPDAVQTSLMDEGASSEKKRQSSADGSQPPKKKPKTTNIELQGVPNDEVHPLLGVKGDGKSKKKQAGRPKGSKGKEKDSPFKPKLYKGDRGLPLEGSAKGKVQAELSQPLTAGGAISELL

Target: Flag-tagged wild-type human Cfp1 (human) (UniProt Q9P0U4)
Assay: co-IP; Flag-tagged human Cfp1 in Cfp1 knockdown HEK293 cells; RIPA lysate (400 mM NaCl); Anti-FLAG M2 magnetic beads 16 h; washes with 300 mM NaCl, 0.1% NP-40; western blot

binding: binds
Substance: RbBP5 of HEK293 cells (from UniProt Q15291 1-538)
